# Reference: the supplement of paper PMC12067093, “Discovery and optimisation of a covalent ligand for TRIM25 and its application to targeted protein ubiquitination” (Chemical Science, 2025)
# Some of the results follow.
# Compound: Cc1cc(ccc1-c1ccccc1)C(=O)N1CCCN(CC1)C(=O)CCl [compound 10]
# Test: probe-labelled cysteine peptide fold change vs DMSO (competition) (log2 fold change); higher = less target engagement (more negative = stronger competition)
# Details: 50 µM; THP-1; incubation time: 4 h
# 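Further: competitive profiling in live THP-1 cells: cysteine peptides tagged with an iodoacetamide desthiobiotin (IA-DTB) probe, intensity after compound treatment relative to DMSO-treated cells.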
row,Target,probe-labelled cysteine peptide fold change
1,CHD3_Q12873_1464_HLCEPGADGSETFADGVPR (UniProt Q12873),0.0467
2,CHST11_Q9NPF2_89_DQVTDTCR (UniProt Q9NPF2),-0.0677
3,CLTCL1_P53675_736_YIQAACK (UniProt P53675),-0.212
4,CHORDC1_Q9UHD1_59_RTTDFSDFLSIVGCTK (UniProt Q9UHD1),-0.292
5,CIP2A_Q8TCG1_6_MDSTACLK (UniProt Q8TCG1),-0.884
6,CLTCL1_P53675_778_LTDQLPLIIVCDR (UniProt P53675),0.821
7,CHD8_Q9HCK8_1902_EQVLCHPLLEDR (UniProt Q9HCK8),0.274
8,CIAO3_Q9H6Q4_270_DVDCVLTTGEVFR (UniProt Q9H6Q4),-0.19
9,CIAO3_Q9H6Q4_246_IYHVTVMPCYDK (UniProt Q9H6Q4),-0.28
10,CMIP_Q8IY22_455_TLGCYVEILK (UniProt Q8IY22),-0.172
11,CFL1_P23528_147_DRCTLAEK (UniProt P23528),0.0839
12,CHD8_Q9HCK8_680_NYSYLHCEWATISQLEK (UniProt Q9HCK8),-0.0197
13,CLEC11A_Q9Y240_177_LEGCLK (UniProt Q9Y240),-0.0167
14,CLASP1_Q7Z460_1423_AAEEAASTLASSIHPEQCIK (UniProt Q7Z460),0.0833
15,CHPF_Q8IZ52_266_MLLQQLRPHLEGCR (UniProt Q8IZ52),0.0412
16,CINP_Q9BW66_92_LCEELQATLDGLTK (UniProt Q9BW66),-0.0536
17,CLASP2_O75122_129_SLLVAGAAQYDCFFQHLR (UniProt O75122),-0.222
18,CLEC11A_Q9Y240_319_LYYVCEFPF (UniProt Q9Y240),-0.19
19,CMIP_Q8IY22_363_NGCQQPCDR (UniProt Q8IY22),-1.18

row,Target,probe-labelled cysteine peptide fold change
1,CLUH_O75153_200_ERPLCPLQPQNR (UniProt O75153),-0.0345
2,CIAO1_O76071_271_TIYDIAWCQLTGALATACGDDAIR (UniProt O76071),0.223
3,CIAPIN1_Q6FI81_116_LCSALTLSGLVEVK (UniProt Q6FI81),-0.198
4,CLSTN1_O94985_261_ISIKPTCTPGWQGWNNR (UniProt O94985),-0.061
5,CIAPIN1_Q6FI81_274_SACGNCYLGDAFR (UniProt Q6FI81),-0.606
6,CHI3L1_P36222_300_EAGTLAYYEICDFLR (UniProt P36222),-0.107
7,CHUK_O15111_30_LGTGGFGNVCLYQHR (UniProt O15111),-0.259
8,CHD1L_Q86WJ1_123_FAPGLSCVTYAGDK (UniProt Q86WJ1),0.441
9,CMIP_Q8IY22_514_FAEDPRQEVHSCLLSVR (UniProt Q8IY22),-0.327
10,CHD8_Q9HCK8_1116_EACHIIPHDFHLQAMVR (UniProt Q9HCK8),-0.0815
11,CLIC1_O00299_223_EEFASTCPDDEEIELAYEQVAK (UniProt O00299),0.0241
12,CHD9_Q3L8U1_1257_FSKPDSDRFVFLLCTR (UniProt Q3L8U1),-0.171
13,CHAMP1_Q96JM3_787_HLTHCQSR (UniProt Q96JM3),-0.388
14,CHD1L_Q86WJ1_123_FAPGLSCVTYAGDKEER (UniProt Q86WJ1),-0.322
15,CLTC_Q00610_1102_CNEPAVWSQLAK (UniProt Q00610),0.0265
16,CLIC4_Q9Y696_35_AGSDGESIGNCPFSQR (UniProt Q9Y696),-0.151
17,CLUH_O75153_88_TCFSLHLDGNVLDHFSELR (UniProt O75153),-0.157
18,CLTC_Q00610_1573_RECFGACLFTCYDLLRPDVVLETAWR (UniProt Q00610),0.276
19,CINP_Q9BW66_120_GICELENYHYGEESK (UniProt Q9BW66),0.44

# Quoted from the results shown for reference:
row,Target,probe-labelled cysteine peptide fold change
12,CHD9_Q3L8U1_1257_FSKPDSDRFVFLLCTR (UniProt Q3L8U1),-0.171
13,CHAMP1_Q96JM3_787_HLTHCQSR (UniProt Q96JM3),-0.388
14,CHD1L_Q86WJ1_123_FAPGLSCVTYAGDKEER (UniProt Q86WJ1),-0.322
15,CLTC_Q00610_1102_CNEPAVWSQLAK (UniProt Q00610),0.0265
16,CLIC4_Q9Y696_35_AGSDGESIGNCPFSQR (UniProt Q9Y696),-0.151
17,CLUH_O75153_88_TCFSLHLDGNVLDHFSELR (UniProt O75153),-0.157
18,CLTC_Q00610_1573_RECFGACLFTCYDLLRPDVVLETAWR (UniProt Q00610),0.276
19,CINP_Q9BW66_120_GICELENYHYGEESK (UniProt Q9BW66),0.44
